# Test results: publication PMC4392283
# No constants are given. Whether binding was seen depends on the method and setting. Binding seen in cells or lysates may run through a third protein. Some binding calls cover weakened binding; strength is not graded here.
# Legend:
# [1] = target: PKCα (human (endogenous in HEK293)) (UniProt P17252); assay: co-IP; HEK293 cells in Glc(−) DMEM (glucose deprivation), 10 μM MG132 for 8 h from 16 h; PKCα immunoprecipitated with an anti-PKCα antibody, immunoblotting with anti-β-catenin and anti-PKCα antibodies
# [2] = target: PKCα (human (endogenous in HEK293)) (UniProt P17252); assay: condition: only normal glucose conditions (Glc(+)), cells without glucose deprivation; co-IP; HEK293 cells in Glc(+) DMEM (normal glucose), 10 μM MG132 for 8 h; PKCα immunoprecipitated with an anti-PKCα antibody, immunoblotting with anti-β-catenin and anti-PKCα antibodies
substance,measurement,setting,value
β-catenin (from UniProt P35222 1-781),binding,[1],binds
same,binding,[2],no binding
